Structures can show the parent of a compound that is named as a salt.
Columns and labels:
[1] = dyeing of nylon (satin) and fastness of the dyed fabric; details: for fastness to water / fastness to washing: dyed nylon; for fastness to washing: Example 7: severe washing
Description: 100 parts of "nylon" satin are steeped in a bath containing 3000 parts of water and 1 part of a wetting agent based on oxyethylenated fatty alcohol for 10 minutes at 40° C., then 0.5 to 2 parts of 80% acetic acid are added so as to obtain a pH of 4-5. 1 part of the above-mentioned dyestuff finely dispersed and which has been previously made into a paste in a little water is added. Dyeing commences at 500° C., the mixture is brought to boiling point in three-quarters of an hour whilst maintaining a level for a quarter of an hour at 75° C. and boiling is maintained for approximately one and a half hours.

[2] = dyeing of Rilsan fibres and fastness of the dyed fibre
Description: In accordance with the process of Example 1, 100 parts of "Rilsan" fibres are steeped in 3000 parts of water, the pH is brought to 6-7 by the addition of crystallised ammonium acetate and 0.5 parts of the above dyestuff is added. After dyeing for one and a half hours at boiling point and rinsing, a reddish-blue colouration is obtained which is very fast to water and washing.

SMILES	fastness to water [1]	fastness to washing [1]	shade on nylon [1]	further results
Nc1c(S(=O)(=O)O)cc(Nc2ccc(OC(F)(F)F)cc2)c2c1C(=O)c1ccccc1C2=O [Example 1, sodium salt of 1-amino-4-(paratrifluoromethoxy-anilino)-anthraquinone-2-sulphonic acid]	very good	very good	bright reddish-blue	fastness to light ([1]; dyed nylon satin): very good; fastness to perspiration ([1]; dyed nylon satin): very good
Nc1c(S(=O)(=O)O)cc(Nc2cccc(OC(F)(F)F)c2)c2c1C(=O)c1ccccc1C2=O [Example 2]	–	–	bright reddish-blue	–
O=C1c2ccccc2C(=O)c2c(Nc3ccc(OC(F)(F)F)cc3S(=O)(=O)O)ccc(Nc3ccc(OC(F)(F)F)cc3S(=O)(=O)O)c21 [Example 3]	excellent	excellent	greenish-blue	–
CNc1ccc(Nc2ccc(OC(F)(F)F)cc2S(=O)(=O)O)c2c1C(=O)c1ccccc1C2=O [Example 4, sodium salt of 1-methylamino-4'-trifluoromethoxy-4anilino-anthraquinone-2'-sulphonic acid]	–	–	–	shade on Rilsan [2]: reddish-blue; fastness to washing ([2]; dyed Rilsan): very fast; fastness to water ([2]; dyed Rilsan): very fast
CNc1ccc(Nc2ccc(S(=O)(=O)O)cc2OC(F)(F)F)c2c1C(=O)c1ccccc1C2=O [Example 5]	–	–	–	shade on Rilsan [2]: reddish-blue; fastness to wet tests ([2]; dyed Rilsan): very fast
O=C1c2ccccc2C(=O)c2c(NC3CCCCC3)ccc(Nc3ccc(OC(F)(F)F)cc3S(=O)(=O)O)c21 [Example 6, 1-cyclohexylamino-4-(2-sulpho-4-trifluromethoxyanilino)-anthraquinone (sodium salt)]	remarkably fast	remarkably fast	reddish-blue	–
COc1ccc(Nc2cc(S(=O)(=O)O)c(N)c3c2C(=O)c2ccccc2C3=O)cc1 [reference compound]	–	–	greenish-blue	–
COc1ccc(Nc2ccc(Nc3ccc(OC)cc3S(=O)(=O)O)c3c2C(=O)c2ccccc2C3=O)c(S(=O)(=O)O)c1 [reference compound]	–	–	green	–
COc1ccc(Nc2ccc(NC3CCCCC3)c3c2C(=O)c2ccccc2C3=O)c(S(=O)(=O)O)c1 [reference compound]	–	–	greenish-blue	–

From patent US4035397A, “Polyfluoro acid anthraquinone dyestuffs their preparation and their use” (Produits Chimiques Ugine Kuhlmann, priority 1973, dated 1977)
